Measurements reported in PMC11869656.
Results are given in words; binding and its absence hold for the method and conditions named. In cells and extracts the contact can be indirect. Binding calls can cover weak binding; strength is not graded here. Tags and fused reporters may be left off the sequences shown.

Columns and labels:
[1] = target: T1, myc-tagged pig mRNA decapping enzyme 1A (DCP1A), full length (pig) (UniProt I3LHS8); test: co-IP; BHK-21 cells cotransfected with myc-tagged DCP1A (or its truncations) and GFP-tagged SVV proteins or HA-tagged autophagy receptors; lysed at 24 hpt; anti-myc magnetic beads overnight; western blotting with anti-myc, anti-HA, anti-GFP
T1 sequence: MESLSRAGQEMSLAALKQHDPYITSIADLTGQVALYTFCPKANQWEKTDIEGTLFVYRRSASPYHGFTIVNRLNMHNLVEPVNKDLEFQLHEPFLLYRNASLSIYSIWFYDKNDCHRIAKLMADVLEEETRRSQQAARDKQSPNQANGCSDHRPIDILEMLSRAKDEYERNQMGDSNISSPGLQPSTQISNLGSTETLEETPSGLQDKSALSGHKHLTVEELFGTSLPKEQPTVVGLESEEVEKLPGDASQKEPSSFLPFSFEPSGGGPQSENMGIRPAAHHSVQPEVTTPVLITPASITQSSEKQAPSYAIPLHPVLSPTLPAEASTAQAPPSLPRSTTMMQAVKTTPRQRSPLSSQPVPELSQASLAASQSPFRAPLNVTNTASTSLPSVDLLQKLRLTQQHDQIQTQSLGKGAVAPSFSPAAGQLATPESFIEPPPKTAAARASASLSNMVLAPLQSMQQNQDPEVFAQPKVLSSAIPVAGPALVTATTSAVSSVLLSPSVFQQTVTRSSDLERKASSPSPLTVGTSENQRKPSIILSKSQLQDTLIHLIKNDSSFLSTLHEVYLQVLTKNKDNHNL

[2] = target: T2, myc-tagged DCP1A (344–580) (pig) (UniProt I3LHS8); test: as above
T2 sequence: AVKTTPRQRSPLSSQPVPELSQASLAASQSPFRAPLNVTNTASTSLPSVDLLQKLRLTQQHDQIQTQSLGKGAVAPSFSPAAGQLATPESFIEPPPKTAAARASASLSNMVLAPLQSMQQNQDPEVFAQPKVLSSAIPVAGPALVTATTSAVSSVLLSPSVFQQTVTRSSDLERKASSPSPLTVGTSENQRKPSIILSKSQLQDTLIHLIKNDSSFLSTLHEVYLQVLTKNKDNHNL

GFP-tagged SVV 3D RNA-dependent RNA polymerase (Seneca Valley virus) (enzyme)
binding [1]: binds | binding [2]: binds
